# Results taken from PubChem BioAssay (NCATS).
# Inconclusive results, whose numbers are uncertain, are shown with a selection of clear calls. Potencies of inconclusive entries are doubtful fits and often do not repeat. Active and inactive are the calls of the source. The call rests on the fitted dose curve; in most records, active means well fitted cell-killing curve with a large enough effect; inconclusive means small, poorly fitted or top-dose-only effect, or effect the other way; inactive means no such curve, though single readings can be large or run the other way.
# Assay: Quantitative High-Throughput drug screen in 47 multiple myeloma cell lines against the NCATS MIPE library collection: KHM11_PLB cell viability assay (AID 1918962); further: nearly all actives have a fitted effect of over 35% in size
# Conditions: KHM11 myeloma cell viability, CellTiter-Glo ATP luminescence, 48 h; series mostly up to 45.8 µM
# Text: PI: Beverly A. Mock Ph.D.
# Laboratory of Cancer Biology and Genetics,
# Center for Cancer Research, National Cancer Institute,
# National Institute of Health, Bethesda, Maryland
# Drug resistance and disease progression are common in multiple myeloma (MM) patients, underscoring the need for new therapeutic combinations. […] We hypothesized that effective combinations would reduce MYC expression and enhance p16 activity. […] These preclinical data identify potentially useful drug combinations for evaluation in drug-resistant MM and reveal potential mechanisms of combined drug sensitivity.
# Described herein is the primary MIPE qHTS used to cherrypick compounds. Validated compounds were then further tested for potential synergistic activiy.
# [1] Peat TJ, Gaikwad SM, Dubois W, Gyabaah-Kessie N, Zhang S, Gorjifard S, Phyo Z, Andres M, Hughitt VK, Simpson RM, Miller MA, Girvin AT, Taylor A, Williams D, D'Antonio N, Zhang Y, Rajagopalan A, Flietner E, Wilson K, Zhang X, Shinn P, Klumpp-Thomas C, McKnight C, Itkin Z, Chen L, Kazandijian D, Zhang J, Michalowski AM, Simmons JK, Keats J, Thomas CJ, Mock BA. Drug combinations identified by high-throughput screening promote cell cycle transition and upregulate Smad pathways in myeloma. Cancer Lett. 2023 Aug 1;568:216284. doi: 10.1016/j.canlet.2023.216284. Epub 2023 Jun 24. PMID: 37356470; PMCID: PMC10408729.
# SEQUENCE No. (e.g., 1, 2, 3, etc.); […] (e.g., Cells, Incubation, Reagent, etc.); VALUE and DESCRIPTION.
# 1; Cells; 5 uL; white, solid bottom 1536-well Greiner assay plate.
# 2; Compounds; 23 nL; Kalypsis pin tool (Wako USA) equipped with a 1536-well pin head to transfer to the assay plates.
# 3; Incubation; 48 hours; 37C incubation.
# 4; Reagent;5uL; CellTiter Glo (Promega).
# 5; Detector; 425V; Luminescence; Viewlux PerkinElmer.
# NOTES (numbers refer to Sequence numbers above)
# 1. The cell-based screening methods employed in this study were like those previously published. Briefly, the corresponding myeloma cell lines were screened in 1,536-well plates with 500 cells, 5-uL per well for inhibition of cell viability (assessed by measuring ATP levels with CellTiterGlo).
# 2. NCATS MIPE 4.0 library of approved and investigational drugs were added using the Kalypsis pin tool. Wells treated with DMSO only for 100% viability and media only wells for 0% viability were used as controls.
# 3. The assay plates were covered and incubated for 48 hours in a 37C, 5% CO2 incubator with controlled humidity.
# 4. After 48 hours, CellTilter-GloTM luminescent substrate mix (Promega) reagent was added to the assay plate and plates we incubated for 5 min at room temperature.
# 5. Signal was measured as median relative luminescence units on a ViewLux (PerkinElmer) multiplate reader.
# [1] Heske CM, Davis MI, Baumgart JT, Wilson K, Gormally MV, Chen L, Zhang X, Ceribelli M, Duveau DY, Guha R, Ferrer M, Arnaldez FI, Ji J, Tran HL, Zhang Y, Mendoza A, Helman LJ, Thomas CJ. Matrix Screen Identifies Synergistic Combination of PARP Inhibitors and Nicotinamide Phosphoribosyltransferase (NAMPT) Inhibitors in Ewing Sarcoma. Clin Cancer Res. 2017 Dec 1;23(23):7301-7311. doi: 10.1158/1078-0432.CCR-17-1121. Epub 2017 Sep 12. PMID: 28899971; PMCID: PMC6636827.
# Potency means the concentration at half of the fitted maximal effect.
row,Structure (SMILES),Potency
1,COc1cc(F)c(F)c(Nc2ccc(I)cc2F)c1NS(=O)(=O)C1(C[C@H](O)CO)CC1,"inconclusive: 20.9 µM [cytotoxic, partial curve]"
2,CN1[C@H]2CC[C@H]1CC(OC(=O)c1c[nH]c3ccccc13)C2 (stereo not given in full),"inconclusive: 14.8 µM [cytotoxic, partial curve]"
3,O=c1[nH]c(=O)n([C@H]2C[C@@H](O)[C@@H](CO)O2)cc1F,"inconclusive: 23.5 µM [cytotoxic, single point]"
4,CN(N=O)C(=O)N[C@H]1C(O)OC(CO)[C@@H](O)[C@H]1O (stereo not given in full),"inconclusive: 0.0059 µM [rising, full curve, poor fit]"
5,CN1CCN(Cc2ccc(NC(=O)Nc3ccc(Oc4cc(NC(=O)C5CC5)ncn4)cc3)cc2C(F)(F)F)CC1,active: 0.132 µM
6,COC[C@@H](c1ccc(C(F)(F)F)cc1)N1CCN(C2(C)CCN(C(=O)c3c(C)ncnc3C)CC2)C[C@H]1C,inactive
7,Cc1nccn1CC1CCc2c(c3ccccc3n2C)C1=O (stereo not given),"inconclusive: 18.7 µM [cytotoxic, partial curve, poor fit]"
8,C=C[C@@H]1CN2CCC1C[C@@H]2C(O)c1ccnc2ccc(OC)cc12 (stereo not given in full),inactive
9,C[N+]1(C)[C@@H]2CC(OC(=O)[C@H](CO)c3ccccc3)C[C@H]1[C@H]1O[C@@H]12 (stereo not given in full),"inconclusive: 0.187 µM [rising, full curve, poor fit]"
10,CC[C@H](C=C[C@@H](C)[C@H]1CC[C@H]2[C@@H]3CC=C4C[C@@H](O)CC[C@]4(C)[C@@H]3CC[C@]12C)C(C)C,inactive
11,O=C(Nc1cccnc1)N1CCC(Cc2cccc(Oc3ccc(C(F)(F)F)cn3)c2)CC1,"inconclusive: 16.6 µM [cytotoxic, partial curve, poor fit]"
12,Cc1cccc(-c2[nH]ncc2-c2ccc3ncccc3n2)n1,"inconclusive: 0.105 µM [rising, full curve, poor fit]"
13,Cc1ccc(/C=N/NC(=O)c2ccccc2Oc2ccccc2)o1,"inconclusive: 14.8 µM [cytotoxic, partial curve]"
14,COc1c(N2CCNC(C)C2)c(F)cc2c(=O)c(C(=O)O)cn(C3CC3)c12 (stereo not given),inactive
15,Cc1ccn(-c2ccc(-c3ncco3)cc2)c(=O)c1-c1ccc2nc(N)ncc2c1,"inconclusive: 14.8 µM [cytotoxic, partial curve]"
16,COc1cc([C@H]2Oc3cc([C@H]4Oc5cc(O)cc(O)c5C(=O)[C@H]4O)ccc3O[C@H]2CO)ccc1O,"inconclusive: 9.35 µM [cytotoxic, partial curve, poor fit]"
17,O=C(O)CCC1CCC(c2cc(F)ccc2F)(S(=O)(=O)c2ccc(Cl)cc2)CC1 (stereo not given),"inconclusive: 0.935 µM [cytotoxic, full curve, poor fit]"
18,CN(C)CCC=C1c2ccccc2COc2ccc(CC(=O)O)cc21,"inconclusive: 7.43 µM [rising, partial curve]"
19,OCCCNc1cc(-c2ccnc(Nc3cccc(Cl)c3)n2)ccn1,active: 0.0187 µM
20,CCN(CC)CCCC(C)Nc1nc(C)cc(Nc2ccc3nc(C)cc(N)c3c2)n1 (stereo not given),"inconclusive: 18.7 µM [cytotoxic, partial curve, poor fit]"

# Quoted from the listing.
# Potency with C=C[C@@H]1CN2CCC1C[C@@H]2C(O)c1ccnc2ccc(OC)cc12 (stereo not given in full) reads inactive
# Potency with CN1CCN(Cc2ccc(NC(=O)Nc3ccc(Oc4cc(NC(=O)C5CC5)ncn4)cc3)cc2C(F)(F)F)CC1 reads active: 0.132 µM
# Potency with CCN(CC)CCCC(C)Nc1nc(C)cc(Nc2ccc3nc(C)cc(N)c3c2)n1 (stereo not given) reads inconclusive: 18.7 µM [cytotoxic, partial curve, poor fit]

# Next entries.

row,Structure (SMILES),Potency
1,NC12CC3CC(CC(C3)C1)C2,"inconclusive: 0.166 µM [rising, partial curve, poor fit]"
2,Cc1cc(-c2ccc(CC(=O)Nc3ccc(-c4cccnc4)cc3)cc2)ccn1,"inconclusive: 14.8 µM [cytotoxic, partial curve, poor fit]"
3,NCCc1cnc[nH]1,"inconclusive: 1.66 µM [cytotoxic, full curve, poor fit]"
4,CN(C)CCOc1cc(-c2cn[nH]c2)ccc1NC(=O)C1COc2ccccc2O1 (stereo not given),inactive
5,OC[C@H]1O[C@@H](Oc2ccc(O)cc2)[C@H](O)[C@@H](O)[C@H]1O,inactive
6,Nc1nc2c(ncn2COCCO)c(=O)[nH]1,inactive
7,CC(C)[C@H](N)C(=O)OCCOCn1cnc2c(=O)[nH]c(N)nc21,"inconclusive: 37.2 µM [cytotoxic, single point]"
8,CCCCC(C=O)NC(=O)C(CC(C)C)NC(=O)OCc1ccccc1 (stereo not given),inactive
9,C[C@H]1[C@H](NC(=O)C(=NOC(C)(C)C(=O)O)c2csc(N)n2)C(=O)N1S(=O)(=O)O,inactive
10,CC1(C)[C@H](O[C@H]2O[C@H](C(=O)O)[C@@H](O)[C@H](O)[C@H]2O[C@@H]2O[C@H](C(=O)O)[C@@H](O)[C@H](O)[C@H]2O)CC[C@@]2(C)[C@H]1CC[C@]1(C)[C@H]2C(=O)C=C2[C@H]3C[C@@](C)(C(=O)O)CC[C@]3(C)CC[C@]21C,"inconclusive: 0.235 µM [rising, full curve, poor fit]"
11,COCCOc1nc(-c2ccc(Cl)c(Cl)c2)n(-c2ccc(NC(=O)CCl)cc2)n1,active: 11.8 µM
12,Cc1onc(-c2ccccc2)c1C(=O)N[C@@H]1C(=O)N2[C@@H](C(=O)O)C(C)(C)S[C@@H]12,"inconclusive: 0.662 µM [cytotoxic, partial curve, poor fit]"
13,c1cc(-c2sc(-c3ccncc3)c(-c3ccncc3)c2-c2ccncc2)ccn1,"inconclusive: 26.4 µM [cytotoxic, single point]"
14,CCN(CC)CCOc1ccc(C(=C(Cl)c2ccccc2)c2ccccc2)cc1,"inconclusive: 0.0372 µM [rising, full curve, poor fit]"
15,Nc1ccn([C@@H]2O[C@H](CO)[C@@H](O)[C@H]2O)c(=O)n1,"inconclusive: 0.0093 µM [rising, full curve, poor fit]"
16,COc1ccc2cccc(CCNC(C)=O)c2c1,inactive
17,CC(=O)OCC(=O)[C@@]12N=C(C)O[C@H]1C[C@H]1[C@@H]3CCC4=CC(=O)C=C[C@]4(C)[C@@H]3[C@@H](O)C[C@@]12C,"inconclusive: 26.4 µM [cytotoxic, single point]"
18,COc1ccc(-c2c(-c3ccc(O)cc3O)n[nH]c2C)cc1,inactive
19,Cn1c(=O)c2[nH]cnc2n(C)c1=O,inactive
20,Clc1ccc(COC(Cn2ccnc2)c2ccc(Cl)cc2Cl)cc1 (stereo not given),"inconclusive: 37.2 µM [cytotoxic, single point]"
